No constants are given. Whether binding was seen depends on the method and setting. Some entries that bind do so weakly or less than the wild type.
Molecular target: GST-BIR2 (human) (UniProt P98170)
Test: biotinylated peptide on Neutravidin plate, GST-XIAP BIR2 added, anti-GST detection

Sequences of proteins named here, by UniProt entry; tags and fusion partners are left off. Residues count along the entry.
UniProt P98170, residues 124-240: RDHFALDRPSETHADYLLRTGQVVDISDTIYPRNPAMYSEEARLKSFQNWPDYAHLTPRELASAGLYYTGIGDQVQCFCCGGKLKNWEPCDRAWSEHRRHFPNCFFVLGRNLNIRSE

binding: binds
Binder: AVPIAQK (biotin (site not stated)) [biotinylated SMAC 7-mer peptide]

Source: patent publication US20060211627A1 (BURNHAM INSTITUTE, published 2006)
